This is an account of results in article PMC12405659.

The chains behind the UniProt entries cited, without tags or fusion partners. Residues count along the entry.
UniProt Q9Y5F8, residues 31-929: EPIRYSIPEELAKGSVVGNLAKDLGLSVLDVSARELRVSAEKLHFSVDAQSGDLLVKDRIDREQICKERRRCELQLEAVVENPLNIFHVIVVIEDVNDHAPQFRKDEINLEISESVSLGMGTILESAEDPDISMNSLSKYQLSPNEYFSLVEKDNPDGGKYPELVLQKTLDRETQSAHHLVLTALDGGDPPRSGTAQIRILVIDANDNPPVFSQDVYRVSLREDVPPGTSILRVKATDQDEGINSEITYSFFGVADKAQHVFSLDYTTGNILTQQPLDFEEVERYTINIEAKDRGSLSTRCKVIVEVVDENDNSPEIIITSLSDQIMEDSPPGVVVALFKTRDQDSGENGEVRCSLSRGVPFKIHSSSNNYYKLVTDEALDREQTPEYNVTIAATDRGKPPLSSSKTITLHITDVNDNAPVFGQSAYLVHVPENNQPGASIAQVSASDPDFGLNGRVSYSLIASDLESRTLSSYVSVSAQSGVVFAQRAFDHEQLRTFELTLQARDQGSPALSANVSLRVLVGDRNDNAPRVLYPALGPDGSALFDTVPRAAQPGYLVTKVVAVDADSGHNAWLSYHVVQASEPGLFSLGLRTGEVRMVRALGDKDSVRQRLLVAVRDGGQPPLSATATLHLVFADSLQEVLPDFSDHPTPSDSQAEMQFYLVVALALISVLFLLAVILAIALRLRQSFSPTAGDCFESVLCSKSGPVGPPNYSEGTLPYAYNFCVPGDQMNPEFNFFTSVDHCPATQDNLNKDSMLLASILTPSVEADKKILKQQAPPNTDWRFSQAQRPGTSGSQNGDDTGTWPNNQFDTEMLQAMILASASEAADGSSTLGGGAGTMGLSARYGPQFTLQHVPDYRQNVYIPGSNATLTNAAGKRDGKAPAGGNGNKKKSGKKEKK
UniProt P13010: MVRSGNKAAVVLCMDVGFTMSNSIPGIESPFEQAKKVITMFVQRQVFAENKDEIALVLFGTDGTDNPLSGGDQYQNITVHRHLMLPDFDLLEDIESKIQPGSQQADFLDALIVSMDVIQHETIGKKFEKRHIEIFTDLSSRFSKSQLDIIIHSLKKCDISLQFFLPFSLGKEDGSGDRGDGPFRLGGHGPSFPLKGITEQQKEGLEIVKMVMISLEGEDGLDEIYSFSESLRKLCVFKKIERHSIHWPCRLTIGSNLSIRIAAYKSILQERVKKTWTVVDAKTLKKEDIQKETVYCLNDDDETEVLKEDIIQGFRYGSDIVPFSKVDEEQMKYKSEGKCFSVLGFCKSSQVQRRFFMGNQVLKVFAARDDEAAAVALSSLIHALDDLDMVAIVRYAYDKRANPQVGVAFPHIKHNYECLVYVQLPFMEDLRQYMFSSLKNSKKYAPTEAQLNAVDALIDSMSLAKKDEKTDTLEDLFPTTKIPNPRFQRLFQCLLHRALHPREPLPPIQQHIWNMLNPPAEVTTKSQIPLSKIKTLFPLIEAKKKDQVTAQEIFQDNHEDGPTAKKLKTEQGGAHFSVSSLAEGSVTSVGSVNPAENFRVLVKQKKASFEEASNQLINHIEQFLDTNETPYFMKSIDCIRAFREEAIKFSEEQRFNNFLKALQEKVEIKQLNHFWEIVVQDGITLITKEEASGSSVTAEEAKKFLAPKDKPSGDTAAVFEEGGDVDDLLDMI

This assay has as its target PCDHGB7-flag (UniProt Q9Y5F8). As to the kind of experiment: affinity purification with mass spectrometry; co-IP followed by MS (LC-MS/MS, timsTOF Pro 2) to identify the proteins that interacted with PCDHGB7 in TNBC cells.

Results are given in words; binding and its absence hold for the method and conditions named. Binding seen in cells or lysates may run through a third protein. A yes stands for co-enrichment or nearness to the bait. Other partners may have been found.

Regarding “x‐ray repair cross‐complementary 5 (XRCC5) (from UniProt P13010 1-732)”, the binding result was “binds”.
